Experimental data as given in patent US8455553B2, “Methods and compositions for prevention and treatment of inflammatory disease, autoimmune disease and transplant rejection” (The Regents of the University of California, priority 2001, dated 2013).
At least one structure is not confirmed: it was looked up by name or label, or the drawing left a doubt.

Tested on: LPS induced gene expression (RANTES, MCP-1, ISG54, TNF)
Test: LPS induced gene expression (interferon regulated genes) in vitro
Format: cell-based

For Oc1ccc(/C=C/c2cc(O)cc(O)c2)cc1 [resveratrol, trihydroxy-stilbene], the “Concentration that blocks LPS induced gene expression (e.g., RANTES, MCP-1, TNF)” value was “micromolar range”.
